Results taken from patent publication US20090182019A1, “Histone deacetylase inhibitors” (The Johns Hopkins University, priority 2005, published 2009).
Counter-ions that a name gives are not always drawn. For at least one compound, name, drawing or mass did not settle the structure.

Key:
[1] = test system: ML-1 human myelocytic leukemia line; test: Cell viability in ML-1 cells, MTT assay; type: cell-based; conditions: day 3 or 7; 0.1 to 100 μM
Description: The well characterized ML-1 human myelocytic leukemia cell line was used to obtain the results presented below in the Examples section. This line has a well characterized response to HDAC inhibitors and is amenable for use in rapid in vitro screening of compounds to evaluate growth inhibitory effects. In addition to the ML-1 cells, the well characterized HCT 116 human colon adenocarcinoma may be used. […]
The MTT (3-[4,5-dimethylthiazol-2-yl]2,5-diphenyl tetrazolium bromide) reduction assay for growth inhibition studies may also be employed. […] HCT 116 cells are seeded at a density of 5×10^4 cells/ml and ML-1 cells are seeded at 2×10^4/ml and are treated for a period of 96 hr prior to dye reduction and plate reading. […]
Compound 19 was evaluated in a series of cell viability studies in the ML-1 human myelocytic leukemia line. […] Compound 19, as well as the positive controls TSA and MS-275, were compared at concentrations between 0.1 and 100 μM, and cell viability was determined in the ML-1 cultured cell preparation at 3 days (FIG. 4) and 7 days (FIG. 5) using a standard MTT assay. […] In a separate set experiments, cell viability was determined under the same conditions by direct cell count. […]

[2] = test system: tumor suppressor protein p21; test: Reexpression of p21 in ML-1 cells, Western blot; type: cell-based, human
[3] = test system: HDAC; test: Inhibition of isolated HDAC, commercial Fluor de Lys assay (HeLa cell nuclear extract); type: biochemical; set-up: dose or concentration left out as unconfirmed; conditions: TSA as positive control
[4] = test system: ML-1 human myelocytic leukemia line; test: Cell viability in ML-1 cells, direct cell count; type: cell-based; conditions: 3 and 7 days; versus TSA and MS-275; especially at concentrations greater than 10 μM
Procedure: ML-1 cells were maintained in RPMI medium supplemented with 10% fetal calf serum, 0.1 mg/mL gentamicin, and 2 mM L-glutamine. 3×10^5 cells/ml were treated with 1 (Wako Pure Chemicals, Richmond, Va.), 2 (Mitsui Pharmaceuticals, Chiba, Japan) and the desired test compound for the concentration and time indicated in the figure legend.
Compound 19 was evaluated in a series of cell viability studies in the ML-1 human myelocytic leukemia line. The results of these studies are outlined in FIGS. 4-7. Compound 19, as well as the positive controls TSA and MS-275, were compared at concentrations between 0.1 and 100 μM, and cell viability was determined in the ML-1 cultured cell preparation at 3 days (FIG. 4) and 7 days (FIG. 5) using a standard MTT assay. […] In a separate set experiments, cell viability was determined under the same conditions by direct cell count. As before, TSA and MS-275 produced significant toxicity at both 3 and 7 days, again with IC50 values less than 10 μM.

[5] = test system: HDAC; test: Inhibition of isolated HDAC, commercial Fluor de Lys assay (HeLa cell nuclear extract); type: biochemical; conditions: 1 μM inhibitor; average of three determinations
Procedure: This is a facile and rapid 96-well plate-based assay that is suitable for use as a high throughput screen. The reaction mixture contains a HeLa cell nuclear extract and a commercial substrate containing acetylated lysine side chains. The substrate and extract are incubated in the presence of the appropriate concentration of the inhibitor. Deacetylation of the substrate followed by mixing with the provided developer generates a fluorophore. Comparison of inhibited vs. control relative fluorescence using a standard plate reader is employed to determine percent HDAC activity remaining. All determinations can be carried out in triplicate, and reported values can be the average of these determinations.
Compounds were evaluated for their ability to inhibit isolated HDAC at 1 μM in the Fluor de Lys™ assay system.

[6] = test system: histones H3 and H4 in the ML-1 cell line; test: Hyperacetylation of histones H3 and H4 in ML-1 cells, Western blot; type: cell-based, human; conditions: 1 μM, after 24 hours

With O=C(CCCCCCC(=O)NCCCNCCCCNCCC(c1ccccc1)c1ccccc1)NO [Compound 19, 17-N-[4-(3,3-Diphenyl)propyl]amino-8-oxo-7,11-diazaheptadecanohydroxamic Acid dihydrobromide] the “Toxicity to ML-1 cells (MTT), in words” value [1] was “did not produce significant toxicity”, the “Reexpression of p21” value [2] was “effective at promoting the reexpression” and the “Dose-response for inhibition of HDAC (relative potency)” value [3] was “essentially equipotent”. For the same molecule, the “Toxicity to ML-1 cells (direct cell count), in words” value [4] was “significantly less toxic”, the “Inhibition of HDAC at 1 μM (%)” value [5] was 73.85% and the “Levels of acetylated H3 and H4 compared to MS-275” value [6] was “higher levels of acetylated H3 and H4”.
